PubChem BioAssay AID504786 | Drosophila RNAi Screening Center, 2011

Aim: 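Positive regulators of HIF-driven reporter output in Drosophila cells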 (primary screen)
System: Drosophila S2 cells with a stable HIF luciferase reporter
Knock-down reagent: long dsRNA against Drosophila genes, about 0.2 µg dsRNA per well of a 384-well plate
Time to read-out: three days of knock-down, then 20 h of DFO before reading
Challenge: desferrioxamine (DFO) at 100 µM, an iron chelator that mimics hypoxia, for 20 h
Read-out: 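Firefly luciferase driven by the mouse ldh-a hypoxia-response element, measured after 20 h of 100 µM DFO; z-scores per plate, higher means more signal lost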
Direction: z-score: higher = stronger loss of HIF reporter signal
The deposit covers about 21,000 reagents; shown is a random part of those with a known target gene and a result. 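Primary screen; positive scores mean lost reporter signal, so the sign may be inverted from the usual convention.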 A plus sign joins genes that one reagent is predicted to hit.

| gene | amplicon | z-score, replicate 1 | z-score, replicate 2 | z-score, replicate 3 | z-score, replicate 4 |
| --- | --- | --- | --- | --- | --- |
| mRpS30 (GeneID 32530) | DRSC20107 | 0.9 | 0.8 | – | – |
| SmF (GeneID 36314) | DRSC07397 | 4.8 | 5 | – | – |
| Adgf-C (GeneID 41680) | DRSC16473 | -0.2 | -0.3 | – | – |
| E(spl)m5-HLH (GeneID 43158) | DRSC16695 | -0.4 | -0.4 | – | – |
| CG9427 (GeneID 41164) | DRSC16490 | -0.4 | -0.5 | – | – |
| Cpr64Ad (GeneID 38511) | DRSC08284 | -0.1 | -0.7 | – | – |
| Cks30A (GeneID 34250) | DRSC03292 | -0.2 | -0.6 | – | – |
| GstE2 (GeneID 37107) | DRSC06672 | -0.2 | -0.3 | – | – |
| Galphaf (GeneID 39861) | DRSC11171 | -0.1 | -0.8 | – | – |
| Galphai (GeneID 38765) | DRSC11168 | -0.4 | 0 | – | – |
| CG32302 (GeneID 38293) | DRSC08340 | -0.3 | -0.5 | – | – |
| alpha-Est8 (GeneID 40899) | DRSC12620 | -0.4 | -0.5 | – | – |
| Rab9D + Rab9Fa + Rab9E | DRSC19853 | -0.3 | -1 | – | – |
| esg (GeneID 34903) | DRSC03530 | 0 | -0.1 | – | – |
| CG33307 (GeneID 2768914) | DRSC01349 | 0.8 | 0.4 | – | – |
| PsGEF (retired record) (GeneID 31225) | DRSC18600 | -0.2 | 0.2 | – | – |
| PsGEF (retired record) (GeneID 31225) | DRSC18601 | 1.3 | 2 | – | – |
| Trap1 (GeneID 35559) | DRSC05019 | -0.1 | -0.3 | – | – |
| I-2 (GeneID 39156) | DRSC11194 | -0.6 | -1.1 | – | – |
| CG14668 (GeneID 40646) | DRSC12254 | -0.4 | 0 | – | – |
| CG14370 (GeneID 41659) | DRSC14832 | -0.2 | 0.2 | – | – |
| dj-1beta (GeneID 43652) | DRSC14599 | -0.4 | -0.3 | – | – |
| Mip (GeneID 39933) | DRSC10639 | -0.3 | -0.3 | – | – |
| Fhos (GeneID 39004) | DRSC08943 | 0.4 | -0.4 | – | – |
| Fhos (GeneID 39004) | DRSC10545 | -0.3 | -0.4 | – | – |
| Fhos (GeneID 39004) | DRSC10546 | -0.4 | -0.6 | – | – |
| Fhos (GeneID 39004) | DRSC10547 | -0.5 | -0.7 | – | – |
| snk (GeneID 41607) | DRSC17060 | -0.2 | -0.2 | – | – |
| CG15393 (retired record) (GeneID 33433) | DRSC00407 | -0.3 | -0.6 | – | – |
| Nek2 (GeneID 31696) | DRSC18124 | -0.4 | -0.8 | – | – |
| Hk (GeneID 31955) | DRSC17638 | 0.7 | -0.1 | – | – |
| Hk (GeneID 31955) | DRSC18138 | -0.2 | -0.7 | – | – |
| Hk (GeneID 31955) | DRSC18674 | 3.5 | 1.3 | – | – |
| CG33116 (GeneID 326259) | DRSC02045 | -0.3 | 0.6 | – | – |
| CG42747 (GeneID 38732) | DRSC10209 | -0.3 | -0.4 | – | – |
| CG42747 (GeneID 38732) | DRSC10210 | -0.3 | 1.9 | – | – |
| Got2 (GeneID 33373) | DRSC00643 | -0.3 | -0.2 | – | – |
| l(2)k05911 (GeneID 34731) | DRSC02523 | -0.4 | -0.4 | – | – |
| Rab4 + CG42239 | DRSC05667 | -0.1 | -0.3 | – | – |
| CG32374 (GeneID 38848) | DRSC10986 | -0.4 | -0.7 | – | – |
| AIF (GeneID 33390) | DRSC00696 | -0.1 | 0.2 | – | – |
| CG12171 (GeneID 40690) | DRSC12200 | -0.4 | -0.6 | – | – |
| Col4a1 (GeneID 33727) | DRSC03291 | -0.3 | -0.5 | – | – |
| brm (GeneID 39744) | DRSC11330 | 9.1 | 7.8 | – | – |
| Bulli (GeneID 38734) | DRSC10974 | -0.2 | -0.8 | – | – |
| Ocrl (GeneID 31157) | DRSC18576 | -0.4 | -0.7 | – | – |
| Sap30 (GeneID 32664) | DRSC19916 | -0.3 | -0.4 | – | – |
| Or33a (GeneID 34601) | DRSC03386 | -0.2 | -0.2 | – | – |
| CG12662 (GeneID 31825) | DRSC17865 | -0.3 | 0 | – | – |
| ACXB (GeneID 53427) | DRSC00845 | -0.3 | -0.2 | – | – |
| Nf-YC (GeneID 31622) | DRSC18272 | 1.4 | 3.9 | – | – |
| CG5880 (GeneID 43268) | DRSC15906 | -0.3 | -0.2 | – | – |
| Poc1 (GeneID 39502) | DRSC09713 | -0.1 | 0.3 | – | – |
| CG34450 (GeneID 5740775) | DRSC17822 | -0.3 | -0.5 | – | – |
| CG1850 (GeneID 35647) | DRSC06762 | -0.2 | -0.4 | – | – |
| CG31601 (GeneID 318835) | DRSC03678 | 0.2 | 0 | – | – |
| Ucp4C (GeneID 33832) | DRSC03132 | -0.4 | -0.5 | – | – |
| Daao2 (GeneID 33955) | DRSC02135 | -0.3 | -0.2 | – | – |
| CG6974 (GeneID 41815) | DRSC16160 | -0.2 | -0.3 | – | – |
| cv-d (GeneID 41921) | DRSC16522 | -0.2 | -0.2 | – | – |
| cv-d (GeneID 41921) | DRSC16524 | -0.2 | 0.8 | – | – |
| cv-d (GeneID 41921) | DRSC16526 | -0.3 | -0.4 | – | – |
| eIF5B (GeneID 44261) | DRSC08429 | 0.2 | 0.4 | – | – |
| eIF5B (GeneID 44261) | DRSC08710 | 0.7 | 1.7 | – | – |
| CG11883 (GeneID 36121) | DRSC06094 | -0.3 | -0.3 | – | – |
| CG14043 (GeneID 33714) | DRSC02368 | -0.3 | -0.5 | – | – |
| CG43902 (GeneID 31948) | DRSC17999 | 0.2 | -0.7 | – | – |
| ds (GeneID 33245) | DRSC00815 | 0 | -0.4 | – | – |
| CG13654 (GeneID 43028) | DRSC14654 | -0.2 | -0.6 | – | – |
| CG1965 (GeneID 40842) | DRSC12577 | -0.2 | -0.2 | -0.3 | -0.3 |
| ppk8 (GeneID 318213) | DRSC17269 | -0.1 | 0 | – | – |
| SelT (GeneID 33725) | DRSC02732 | -0.3 | -0.1 | – | – |
| Dnz1 (GeneID 34503) | DRSC03317 | -0.3 | -0.6 | – | – |
| Inx7 (GeneID 33027) | DRSC18784 | -0.3 | -0.6 | – | – |
| RacGAP84C (GeneID 117503) | DRSC12630 | -0.3 | -0.1 | – | – |
| stau (GeneID 37065) | DRSC07698 | -0.2 | -0.8 | – | – |
| ppk27 (GeneID 38440) | DRSC08168 | -0.4 | -0.5 | – | – |
| CG17633 (GeneID 34297) | DRSC02631 | -0.4 | -0.5 | – | – |
| Dscam2 (GeneID 38788) | DRSC08869 | -0.4 | -0.5 | -0.4 | -0.1 |
| Dscam2 (GeneID 38788) | DRSC10198 | -0.1 | 0.1 | – | – |
| Dscam2 (GeneID 38788) | DRSC11018 | -0.5 | -0.4 | – | – |
| Dscam2 (GeneID 38788) | DRSC11019 | -0.1 | -0.1 | – | – |
| CG13728 (GeneID 39937) | DRSC10056 | -0.2 | -0.2 | – | – |
